Screen size: about 320,000 compounds; about 2,100 (0.66%) were called active. The shares of active, inactive and inconclusive entries below differ from those in the screen. The call rests on the fitted dose curve; in most records, active means well fitted inhibition curve with a large enough effect in the signal ratio, with a control signal flat (not every such curve was filed as active); inconclusive means small, poorly fitted or top-dose-only effect, or effect the other way, or a change in a side signal; inactive means flat fitted curve, though single readings scatter; the % refers to the signal ratio. Potencies beside an inconclusive call are fits to weak or partial responses and may not hold up.
experiment: qHTS Assay for Lipid Storage Modulators in Drosophila S3 Cells; settings: BODIPY lipid droplet fluorescence, 18-24 h, cells fed with added oleic acid; lipid storage change, negative = inhibition: at 46.1 µM (top of the series) unless noted
Procedure, shortened: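 Drosophila S3 cells got compounds at several concentrations plus oleic acid (400 uM solution). Laser-scanning cytometry with 488 nm excitation read lipid droplets at 500-530 nm and cells at 575-640 nm. Percent activity was relative to 20 uM Triacsin C.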
On the % scale 0 is the no-effect control and ±100 the full control effect; potency means the concentration at half of the fitted maximal effect.

Lipid storage change, negative = inhibition, inactive:
O=[N+]([O-])c1cc(C(F)(F)F)ccc1N1CCC(O)CC1 3.91%

Lipid storage change, negative = inhibition, inconclusive:
CN(Cc1cc(=O)n2ccsc2n1)C1CCCCC1 6.42% [at 9.22 µM]
Nc1ccc(S(=O)(=O)NCC(=O)OCCOc2ccccc2)cc1[N+](=O)[O-]
O=C(c1ccc(Br)cc1)N1CCCc2ccccc21 -13.5%
CCOC(=O)Cc1csc(SCC(=O)Nc2nccs2)n1 4.08%
CC(NC(=S)Nc1ccccc1)C1COc2ccccc2O1 (stereo not drawn) -10.2%
C=CCn1c(SCC(=O)Nc2cc(OC)c(NC(=O)c3ccco3)cc2OC)nnc1-c1ccncc1 5.98%
N#Cc1c(/N=C/N2CCOCC2)sc2c1CCCCC2 13%
O=C(Oc1c(-c2ccccc2)c(=O)n2c3c(cccc13)CC2)c1ccco1 -3.71%
CCC(C)NC(=O)CNC(=S)N(CCCN1CCOCC1)Cc1cccs1 (stereo not drawn) 9.68%
Cc1cccc(NC(=O)CN2CCN(C(=O)C3CCC3)CC2)c1C 36.6%
CN(C)CC[n+]1ccc(C(=O)c2ccccc2)cc1 -5.52%
CC1CCCN(CC(=O)NC(=O)NC2CCCCC2)C1 (stereo not drawn) -2.06%
CCn1cc(C(=O)OCC(=O)Nc2c(C)n(C)n(-c3ccccc3)c2=O)c(=O)c2ccc(C)nc21 110%
CCC1NC(=S)N(C2CCCCC2)C1=O (stereo not drawn) 2.17%
COc1ccc(-n2c(CCc3ccccc3)nnc2SCC(=O)c2ccccc2)cc1 -3.99%
Cc1onc(-c2ccccc2)c1C(=O)NCCc1ccncc1 24.4%
Cc1cc2ccccc2n1CCNC(=O)C1CCCC1 -11.1%
O=C(CNC(=O)c1ccc(S(=O)(=O)N2CCCCC2)cc1)N/N=C/c1ccco1 16.6%
COc1ccc2oc(C)c(C(=O)NN)c2c1 -128%
CCc1nnc(NC(=O)CSc2nc(SC)ns2)s1 -1.1%
Cc1cccc(C)c1OCC(=O)NCC1CCCO1 (stereo not drawn) 19.4% [at 9.22 µM]
COCCNC(=S)N/N=C(\C)c1ccc(Cl)s1 34.5%
COc1ccc(CNC(=O)CN(C)S(=O)(=O)c2ccc3c(c2)OCCO3)cc1OC 17.6%
COc1ccc(CN(C)C(=O)c2cc(-c3ccccc3)nc3ccc(C)cc23)c(OC)c1OC -54.6%
O=C(COC(=O)c1nsc(Cl)c1Cl)NC1CCCCC1 -22.7%
Cc1csc(Nc2cccc3ccccc23)n1 62.1%
OCCN1CCN(c2cc(-c3ccccc3)c3ccccc3n2)CC1 192%
O=[N+]([O-])c1ccc(Cl)c(-c2ccc(/C=N/n3cnnc3)o2)c1 -19.4%
CC(C)(C)C(=O)c1cnc(Nc2ccccc2Cl)s1 16.5%
Cc1cccc(CSCCNC(=O)COc2ccc(Cl)cc2)c1 7.98%
CCCCOC(=O)c1cc(=O)[nH]c2ccc(C)cc12 -31%
CC(=O)c1cnn(-c2ccccc2)c1C 12.2%
O=C(CN1C(=O)C(=O)c2ccccc21)c1ccc(Cl)cc1 -33%
COc1ccc(S(=O)(=O)N2CCN(CC(=O)N3CCc4ccccc4C3)CC2)cc1OC 7.01%
COc1ccccc1/C=C/C=C1N=C(/C=C/c2ccc(Cl)cc2)OC/1=O 0.408%
Cc1ccc(CNC(=O)Nc2ccc(C)cc2)cc1 0.44%
COCCCN(C(=O)CSCc1ccc(C)cc1)c1c(N)n(Cc2ccccc2)c(=O)[nH]c1=O
COc1ccc(C2NC(=O)NC(C)=C2C(=O)Nc2cc(C)ccc2C)cc1OC (stereo not drawn) 11.5%
CCOC(=O)C1=NNC(C(=O)c2ccc(Cl)cc2)C1c1ccc(OC)cc1 (stereo not drawn) 13.1%
O=C1CN(C(=O)CCCc2c[nH]c3ccccc23)c2ccccc2N1 11.2%

4 compounds out of the list, sorted by molar mass, low to high.
Lipid storage change, negative = inhibition, inconclusive:
Cc1ccc(CNC(=O)Nc2ccc(C)cc2)cc1 0.44%
Cc1cccc(C)c1OCC(=O)NCC1CCCO1 (stereo not drawn) 19.4% [at 9.22 µM]
COc1ccc(S(=O)(=O)N2CCN(CC(=O)N3CCc4ccccc4C3)CC2)cc1OC 7.01%
COCCCN(C(=O)CSCc1ccc(C)cc1)c1c(N)n(Cc2ccccc2)c(=O)[nH]c1=O

Next part.

Potency, inconclusive:
COC(=O)c1ccc(C(=O)N2CCCC(N3CCN(c4ccccc4)CC3)C2)nc1 (stereo not drawn) 29.1 µM [activator, single point]
NC(=O)c1ccsc1NC(=O)COC(=O)c1ccc(Cl)nc1 2.06 µM [activator, full curve, poor fit]
N#Cc1c(N2CCOCC2)nc(-c2ccco2)c2c1CCCC2 20.6 µM [activator, single point]
O=C(COCC(=O)Nc1cccc(C(F)(F)F)c1)Nc1cccc(C(F)(F)F)c1 29.1 µM [falling, single point]
CNc1c([N+](=O)[O-])ncn1C 10.3 µM [falling, partial curve]
O=C(COc1ccc2c3c(c(=O)oc2c1)CCCC3)NCc1cccnc1 20.6 µM [activator, single point]
Cc1cc(C(=O)CCl)c(C)n1-c1ccon1 25.9 µM [falling, partial curve, poor fit]
COC(=O)c1cc(NC(=O)/C=C/c2ccccc2)ccc1O 16.4 µM [falling, single point]
CCCCCCCCCCCC(=O)NC(C(=O)OCC)C(O)c1cccc([N+](=O)[O-])c1 (stereo not drawn) 29.1 µM [falling, single point]
CCOC(=O)C1=C(C)NC(=O)NC1c1c(C)nn(-c2ccccc2)c1Cl (stereo not drawn) 7.31 µM [activator, partial curve]
N#Cc1c(-c2ccco2)cc(-c2ccc(F)cc2)nc1N 18.4 µM [activator, single point]
CCOC(=O)CSc1nnc(CNC(=O)c2cccs2)n1-c1cc(OC)ccc1OC 0.0326 µM [falling, partial curve]

From PubChem BioAssay AID2685 (National Center for Advancing Translational Sciences (NCATS), 2010)
